PubChem BioAssay AID1259254 | NCATS, 2017
The whole screen tested about 59,000 reagents; below is a random part of them. About 1,550 of all reagents (2.6%) count as active. 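G2 share is only a proxy for re-replication; each gene was hit by three separate siRNAs, and active genes were retested.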 Raw values are not corrected between plates. The numbers tell different reagents against one gene apart. Not stated in the record: the amount of reagent.

Test: 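Genome-wide screen for genes that prevent DNA re-replication in cancer cells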 (primary screen)
Cell system: human HCT116 colorectal cancer cells
Knock-down reagent: single siRNA against human genes
Time to read-out: 3 days
Detection: 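Nuclei stained with Hoechst and imaged; cell-cycle phase assigned by DNA content; G2 share scaled per plate, non-targeting siRNA 0%, GMNN siRNA 100%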
Reading the numbers: G2 robust z-score and G2 cells, % of GMNN control: higher = more G2 cells, more excess DNA replication; raw share of cells in G2: higher = larger share of cells with G2 DNA content
Hit rule: 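Active siRNAs have a G2 robust z of 5 or more median absolute deviations over the median, which in these data means about 38% or higher of GMNN control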

gene	reagent no.	G2 robust z-score	G2 cells, % of GMNN control	raw share of cells in G2 (%)	outcome
SDSL (serine dehydratase like)	1	-0.964	-3.81	3.33	inactive
SDSL (serine dehydratase like)	2	0.298	5.06	6.39	inactive
SDSL (serine dehydratase like)	3	1.72	15	12.7	inactive
TBC1D4 (TBC1 domain family member 4)	1	4.99	38.1	22.5	inactive
TBC1D4 (TBC1 domain family member 4)	2	2.02	17.1	11.1	inactive
TBC1D4 (TBC1 domain family member 4)	3	1.36	12.6	7.98	inactive
IGSF22 (immunoglobulin superfamily member 22)	1	5.61	42.4	19.1	active
IGSF22 (immunoglobulin superfamily member 22)	2	-0.811	-2.74	1.98	inactive
IGSF22 (immunoglobulin superfamily member 22)	3	-0.999	-4.06	2.03	inactive
POT1 (protection of telomeres 1)	1	-0.826	-2.84	3.06	inactive
POT1 (protection of telomeres 1)	2	1.28	12	8.16	inactive
POT1 (protection of telomeres 1)	3	-0.53	-0.762	5.82	inactive
ARMC10P1 (armadillo repeat containing 10 pseudogene 1)	1	-0.992	-4.01	2.4	inactive
ARMC10P1 (armadillo repeat containing 10 pseudogene 1)	2	0.106	3.71	5.02	inactive
ARMC10P1 (armadillo repeat containing 10 pseudogene 1)	3	-0.803	-2.68	3.49	inactive

Laid out differently: results already given.
{"gene":"POT1 (protection of telomeres 1)","reagent no.":1,"G2 robust z-score":-0.826,"G2 cells, % of GMNN control":-2.84,"raw share of cells in G2 (%)":3.06,"outcome":"inactive"}
{"gene":"POT1 (protection of telomeres 1)","reagent no.":2,"G2 robust z-score":1.28,"G2 cells, % of GMNN control":12,"raw share of cells in G2 (%)":8.16,"outcome":"inactive"}

More reagents follow.
gene	reagent no.	G2 robust z-score	G2 cells, % of GMNN control	raw share of cells in G2 (%)	outcome
CRMA (cardiomyocyte maturation associated lncRNA)	1	-0.724	-2.13	2.51	inactive
CRMA (cardiomyocyte maturation associated lncRNA)	2	0.245	4.69	5.28	inactive
CRMA (cardiomyocyte maturation associated lncRNA)	3	0.0671	3.44	4.31	inactive
HMOX2 (heme oxygenase 2)	1	-0.446	-0.173	4.98	inactive
HMOX2 (heme oxygenase 2)	2	-0.0319	2.74	6.73	inactive
HMOX2 (heme oxygenase 2)	3	-0.61	-1.32	3.72	inactive
PURB (purine rich element binding protein B)	1	-0.453	-0.218	4.9	inactive
PURB (purine rich element binding protein B)	2	0.104	3.7	6.09	inactive
PURB (purine rich element binding protein B)	3	0.22	4.52	5.65	inactive
MARCHF1 (membrane associated ring-CH-type finger 1)	1	-1.25	-5.82	1.91	inactive
MARCHF1 (membrane associated ring-CH-type finger 1)	2	1.23	11.6	11.5	inactive
MARCHF1 (membrane associated ring-CH-type finger 1)	3	-0.348	0.518	4.63	inactive
COL15A1 (collagen type XV alpha 1 chain)	1	0.158	4.08	5.08	inactive
COL15A1 (collagen type XV alpha 1 chain)	2	-0.249	1.21	5.41	inactive
COL15A1 (collagen type XV alpha 1 chain)	3	1.23	11.6	7.32	inactive
